Source: PubChem BioAssay AID1259405 (NCATS, 2018)
Here is an unselected part of about 50,000 deposited reagents. About 4,000 of all reagents (8%) were called active. 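Mouse siRNA library applied to hamster cells; one well for each siRNA.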 Reagents against one gene are numbered here.

Screen: 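Mouse-designed siRNAs used to find CHO productivity engineering targets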 (primary screen)
Cell system: Chinese hamster CHO-K1 ovary cells with stable secreted eGFP expression
Reagents: single siRNA against mouse genes, 0.8 pmol siRNA per well (2 µl of 400 nM stock)
Time to read-out: 3 days
Measurement: 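Per-well intracellular GFP measured by laser scanning cytometry, plus viability from ATP luminescence, each relative to plate median of non-targeting control wells, in %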
Direction: GFP, % of control: higher = more GFP per well, higher productivity; viability (ATP), % of control: higher = more viable cells (more ATP)
Hit rule: 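Called active when intracellular GFP, relative to negative control, is at or above 120%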

| gene knocked down | reagent | GFP, % of control | viability (ATP), % of control | Call |
| --- | --- | --- | --- | --- |
| Ino80 | 1 | 67.6 | 51.9 | inactive |
| Ino80 | 2 | 98.8 | 67.9 | inactive |
| Ino80 | 3 | 76.5 | 71.3 | inactive |
| Rad52 | 1 | 106 | 104 | inactive |
| Rad52 | 2 | 110 | 77.8 | inactive |
| Chmp1b | 1 | 51.4 | 74.1 | inactive |
| Chmp1b | 2 | 69.9 | 75.5 | inactive |
| Chmp1b | 3 | 128 | 34.4 | active |
| Sstr3 | 1 | 80.9 | 84.1 | inactive |
| Sstr3 | 2 | 70 | 73.7 | inactive |
| Sstr3 | 3 | 27.9 | 29.5 | inactive |
| Senp1 | 1 | 73.4 | 81.4 | inactive |
| Senp1 | 2 | 102 | 74.4 | inactive |
| Senp1 | 3 | 62.5 | 51.1 | inactive |
| Or6b3 | 1 | 66.7 | 43.9 | inactive |
| Or6b3 | 2 | 105 | 78.7 | inactive |
| Or6b3 | 3 | 115 | 74.8 | inactive |
| Nmnat3 | 1 | 102 | 105 | inactive |
| Nmnat3 | 2 | 101 | 81 | inactive |
| Nmnat3 | 3 | 88.2 | 104 | inactive |
| Tnfsf14 | 1 | 75.2 | 50.3 | inactive |
| Tnfsf14 | 2 | 46.5 | 35.6 | inactive |
| Tnfsf14 | 3 | 66.7 | 69.6 | inactive |
| Ppbp | 1 | 58 | 75.9 | inactive |
| Ppbp | 2 | 66.8 | 52.4 | inactive |
| Ppbp | 3 | 69.3 | 65.3 | inactive |
| Mtnr1a | 1 | 35.2 | 37.6 | inactive |
| Mtnr1a | 2 | 105 | 91.5 | inactive |
| Mtnr1a | 3 | 64.6 | 55.3 | inactive |
| Popdc2 | 1 | 104 | 56.7 | inactive |
| Popdc2 | 2 | 92.3 | 81.4 | inactive |
| Popdc2 | 3 | 121 | 102 | active |
| Wscd2 | 1 | 53 | 69.4 | inactive |
| Wscd2 | 2 | 26.8 | 22.2 | inactive |
| Wscd2 | 3 | 68.7 | 74.7 | inactive |
